These results are taken from article doi:10.1101/334276.

No constants are given. Whether binding was seen depends on the method and setting. In cells and extracts the contact can be indirect. A result given as binding can be weak or reduced; the word gives no strength. Tags and fused reporters may be left off the sequences shown.

For the assay, the target named is T1, V5-pRb (pLX304-pRb-V5) (UniProt P06400).
T1 sequence: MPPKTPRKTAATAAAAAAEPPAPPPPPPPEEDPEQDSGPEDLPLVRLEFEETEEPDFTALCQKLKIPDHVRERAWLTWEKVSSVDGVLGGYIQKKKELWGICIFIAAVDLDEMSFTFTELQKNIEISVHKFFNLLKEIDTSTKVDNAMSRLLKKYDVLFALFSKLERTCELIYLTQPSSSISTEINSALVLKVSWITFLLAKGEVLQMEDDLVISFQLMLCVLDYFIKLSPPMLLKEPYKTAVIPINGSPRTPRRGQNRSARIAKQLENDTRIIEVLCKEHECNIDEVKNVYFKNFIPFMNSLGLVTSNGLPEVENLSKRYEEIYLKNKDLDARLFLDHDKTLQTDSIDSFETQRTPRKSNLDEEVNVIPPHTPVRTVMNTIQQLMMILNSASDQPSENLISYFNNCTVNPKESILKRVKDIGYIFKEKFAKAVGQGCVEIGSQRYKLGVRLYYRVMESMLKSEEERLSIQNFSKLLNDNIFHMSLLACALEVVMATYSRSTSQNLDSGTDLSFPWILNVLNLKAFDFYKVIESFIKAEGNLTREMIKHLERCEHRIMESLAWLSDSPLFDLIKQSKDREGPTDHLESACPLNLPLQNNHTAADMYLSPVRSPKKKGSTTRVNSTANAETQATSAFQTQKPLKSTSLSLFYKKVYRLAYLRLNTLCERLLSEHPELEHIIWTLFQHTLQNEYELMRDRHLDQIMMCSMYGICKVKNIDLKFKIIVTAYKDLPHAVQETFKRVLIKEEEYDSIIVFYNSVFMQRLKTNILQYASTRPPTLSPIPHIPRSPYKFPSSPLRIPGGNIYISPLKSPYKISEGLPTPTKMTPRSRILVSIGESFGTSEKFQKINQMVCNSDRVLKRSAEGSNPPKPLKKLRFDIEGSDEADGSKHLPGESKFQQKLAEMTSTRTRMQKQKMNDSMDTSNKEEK
Kind of assay: co-IP.

Regarding “luciferase-fused PP2A (pCIneoLuc-PP2A) (from UniProt P67775) (enzyme)”, the binding result is “binds”.
